Measurements reported in PubChem BioAssay AID743454 (Peter MacCallum Cancer Centre, 2014).
The whole screen tested about 18,000 reagents; below is a random part of them. Over the whole deposit, 450 (2.5%) are marked active. 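Single biological run; no consistent viability z cut-off exists, so the class columns, not z-scores, define the calls.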

Aim: 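Knock-downs lowering viability or raising caspase 3/7 activity in vorinostat-treated resistant cells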 (primary screen)
System: human HCT116-VR colon cancer cells, selected for vorinostat resistance
Knock-down reagent: siRNA pool against human genes, 40 nM siRNA pool
Timing: vorinostat for 24 h, read-out about 72 h after transfection
Treatment: vorinostat at 2.5 µM final
Measured: 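Two measures, CellTiter-Fluor viability and luminescent caspase 3/7 activity, each as fold change against same-plate mock wells, mean of duplicates, then screen-wide robust z-score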
Direction: viability robust z-score: higher = more viable cells than screen typical; caspase robust z-score: higher = more caspase 3/7 activity than screen typical
Hit rule: 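Hits are knock-downs in viability class RV1/RV2 or caspase class CA1/CA2, excluding ones that killed cells in the no-drug cell-count arm; hits then retested with single siRNAs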

gene	viability hit class	caspase hit class	viability robust z-score	caspase robust z-score	Call
DEGS2	no change	no change	0.63	0.5	inactive
TMEM127	no change	no change	0.26	-0.26	inactive
TNPO3	no change	no change	-0.8	-0.02	inactive
DLX3	no change	no change	-0.44	-0.86	inactive
CCDC14	no change	no change	0.22	-1.18	inactive
COX7A2	no change	no change	0.06	-0.51	inactive
STUM	no change	no change	-0.11	0.66	inactive
ANO10	no change	no change	-1.05	2.28	inactive
DNAJC13	no change	no change	-0.78	0.86	inactive
ZNF140	no change	no change	0.74	-0.56	inactive
DEFB108B	no change	no change	-0.7	0.5	inactive
ARPP19	no change	no change	-0.1	-0.84	inactive
ITGA10	no change	no change	0.18	-0.01	inactive
TVP23A	no change	no change	0.1	-0.52	inactive

Targets listed so far whose target name starts with C or c (2):
gene	viability hit class	caspase hit class	viability robust z-score	caspase robust z-score	Call
CCDC14	no change	no change	0.22	-1.18	inactive
COX7A2	no change	no change	0.06	-0.51	inactive

Further records follow:
gene	viability hit class	caspase hit class	viability robust z-score	caspase robust z-score	Call
ANK3	no change	no change	0.26	-0.7	inactive
HELT	no change	no change	1.57	-0.06	inactive
MAB21L2	no change	no change	0.26	0.29	inactive
RAE1	no change	no change	-3.64	1.87	inactive
CHURC1	no change	no change	0.36	-1.17	inactive
CDON	no change	no change	1.06	0.06	inactive
SOCS4	no change	no change	-0.08	-0.73	inactive
PCBD2	no change	no change	-0.5	-1.02	inactive
UBTD1	no change	no change	1.64	-0.75	inactive
